According to the supplement of paper PMC5355238:
Several values for one entry are separate records, joined by “and”; a condition that tells them apart may be missing. Equal entries are not always repeated. Structures can show the parent of a compound that is named as a salt. This is one part of the list. Most values lie at the level of the controls, where differences are scatter.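 Reh is a human leukemia cell line; the read-out is the median γH2AX antibody signal in S-phase cells by flow cytometry, with the score counting standard deviations from the median difference of each paired set of plates. Scores above 2.5 were called candidate hits, while scores below -2 mark compounds that lowered the MK1775-induced damage.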

Each molecule was assayed on Reh (assay: Z' of S-phase gammaH2AX difference (drug + MK1775 minus drug alone) (Z-score); higher = stronger synergistic S-phase DNA damage with MK1775). Conditions: MK1775 concentration 400 nM; first compound 10 µM; 4 h.

| SMILES | Z' of S-phase gammaH2AX difference (Z-score) |
| --- | --- |
| NCC(O)C1CCCCCCC1 (stereo not drawn) [2-Cyclooctyl-2-hydroxyethylamine hydrochloride] + C=CCn1c(=O)c2cnc(Nc3ccc(N4CCN(C)CC4)cc3)nc2n1-c1cccc(C(C)(C)O)n1 [MK1775] | inactive: 1.17 |
| CN1CCC(=C2c3ccccc3C=Cc3ccccc32)CC1 [Cyproheptadine hydrochloride] + C=CCn1c(=O)c2cnc(Nc3ccc(N4CCN(C)CC4)cc3)nc2n1-c1cccc(C(C)(C)O)n1 [MK1775] | inactive: 0.277 |
| CCCNC[C@H](O)COc1ccccc1C(=O)CCc1ccccc1 [(S)-(-)-propafenone hydrochloride] + C=CCn1c(=O)c2cnc(Nc3ccc(N4CCN(C)CC4)cc3)nc2n1-c1cccc(C(C)(C)O)n1 [MK1775] | inactive: -0.107 |
| N#Cc1c(-c2ccccc2)no[n+]1[O-] [4-Phenyl-3-furoxancarbonitrile] + C=CCn1c(=O)c2cnc(Nc3ccc(N4CCN(C)CC4)cc3)nc2n1-c1cccc(C(C)(C)O)n1 [MK1775] | inactive: -0.141 |
| CCn1c(=O)c2[nH]c(-c3ccccc3)nc2n(CC)c1=O [1,3-Diethyl-8-phenylxanthine] + C=CCn1c(=O)c2cnc(Nc3ccc(N4CCN(C)CC4)cc3)nc2n1-c1cccc(C(C)(C)O)n1 [MK1775] | inactive: 0.0134 |
| NCCC[C@](N)(C(=O)O)C(F)F (racemic) [DL-alpha-Difluoromethylornithine hydrochloride] + C=CCn1c(=O)c2cnc(Nc3ccc(N4CCN(C)CC4)cc3)nc2n1-c1cccc(C(C)(C)O)n1 [MK1775] | inactive: 1.11 |
| N#Cc1ccc(C(c2ccc(C#N)cc2)n2cncn2)cc1 [Letrozole] + C=CCn1c(=O)c2cnc(Nc3ccc(N4CCN(C)CC4)cc3)nc2n1-c1cccc(C(C)(C)O)n1 [MK1775] | inactive: 0.104 |
| CN1CCN(C2=Nc3ccccc3Oc3ccc(Cl)cc32)CC1 [Loxapine succinate] + C=CCn1c(=O)c2cnc(Nc3ccc(N4CCN(C)CC4)cc3)nc2n1-c1cccc(C(C)(C)O)n1 [MK1775] | inactive: -0.403 |
| C[N+]1(C)CCC(OC(=O)C(c2ccccc2)c2ccccc2)CC1 [4-DAMP methiodide] + C=CCn1c(=O)c2cnc(Nc3ccc(N4CCN(C)CC4)cc3)nc2n1-c1cccc(C(C)(C)O)n1 [MK1775] | inactive: 0.051 |
| CCN(CC)CCOC(=O)C1(C2CCCCC2)CCCCC1 [Dicyclomine hydrochloride] + C=CCn1c(=O)c2cnc(Nc3ccc(N4CCN(C)CC4)cc3)nc2n1-c1cccc(C(C)(C)O)n1 [MK1775] | inactive: 1.02 |
| CC(N/C(=N\C#N)Nc1ccncc1)C(C)(C)C (stereo not drawn) [Pinacidil] + C=CCn1c(=O)c2cnc(Nc3ccc(N4CCN(C)CC4)cc3)nc2n1-c1cccc(C(C)(C)O)n1 [MK1775] | inactive: -0.0825 |
| CN(C)CCCN1c2ccccc2Sc2ccc(C(F)(F)F)cc21 [Triflupromazine hydrochloride] + C=CCn1c(=O)c2cnc(Nc3ccc(N4CCN(C)CC4)cc3)nc2n1-c1cccc(C(C)(C)O)n1 [MK1775] | inactive: 1.25 |
| COc1ccc2c(c1)CCC1C2CCC2(C)C(NCCCCCCN3C(=O)C=CC3=O)CCC12 (stereo not drawn) + C=CCn1c(=O)c2cnc(Nc3ccc(N4CCN(C)CC4)cc3)nc2n1-c1cccc(C(C)(C)O)n1 [MK1775] | inactive: 0.669 and inactive: -0.906 |
| COC(=O)C1=C(C)NC(C)=C([N+](=O)[O-])C1c1ccccc1C(F)(F)F (stereo not drawn) + C=CCn1c(=O)c2cnc(Nc3ccc(N4CCN(C)CC4)cc3)nc2n1-c1cccc(C(C)(C)O)n1 [MK1775] | inactive: 0.281 |
| COc1cc(C(=O)OCCCN2CCCN(CCCOC(=O)c3cc(OC)c(OC)c(OC)c3)CC2)cc(OC)c1OC [Dilazep hydrochloride] + C=CCn1c(=O)c2cnc(Nc3ccc(N4CCN(C)CC4)cc3)nc2n1-c1cccc(C(C)(C)O)n1 [MK1775] | inactive: -0.279 |
| COc1ccc(-c2ccc3c(N4CCOC[C@@H]4C)nc(N4CCOC[C@@H]4C)nc3n2)cc1CO + C=CCn1c(=O)c2cnc(Nc3ccc(N4CCN(C)CC4)cc3)nc2n1-c1cccc(C(C)(C)O)n1 [MK1775] | inactive: -0.353 |
| N=C(NC(=O)c1nc(Cl)c(N)nc1N)Nc1ccccc1 [Phenamil methanesulfonate] + C=CCn1c(=O)c2cnc(Nc3ccc(N4CCN(C)CC4)cc3)nc2n1-c1cccc(C(C)(C)O)n1 [MK1775] | inactive: 0.767 |
| C#CC(N)CCC(=O)O (stereo not drawn) [gamma-Acetylinic GABA] + C=CCn1c(=O)c2cnc(Nc3ccc(N4CCN(C)CC4)cc3)nc2n1-c1cccc(C(C)(C)O)n1 [MK1775] | inactive: -0.658 |
| Nc1cc(Cl)c(NC2=NCCN2)c(Cl)c1 [p-Aminoclonidine hydrochloride] + C=CCn1c(=O)c2cnc(Nc3ccc(N4CCN(C)CC4)cc3)nc2n1-c1cccc(C(C)(C)O)n1 [MK1775] | inactive: 0.0267 |
| NO [Hydroxylamine hydrochloride] + C=CCn1c(=O)c2cnc(Nc3ccc(N4CCN(C)CC4)cc3)nc2n1-c1cccc(C(C)(C)O)n1 [MK1775] | inactive: -1.06 |
| O=c1[nH]c2ccccc2n1CCCN1CCN(C(c2ccccc2)c2ccccc2)CC1 [Oxatomide] + C=CCn1c(=O)c2cnc(Nc3ccc(N4CCN(C)CC4)cc3)nc2n1-c1cccc(C(C)(C)O)n1 [MK1775] | inactive: -0.252 |
| Nc1nc(Cl)nc2c1ncn2[C@@H]1O[C@H](CO)[C@@H](O)[C@H]1O [2-Chloroadenosine] + C=CCn1c(=O)c2cnc(Nc3ccc(N4CCN(C)CC4)cc3)nc2n1-c1cccc(C(C)(C)O)n1 [MK1775] | inactive: 0.628 |
| Cc1ccc(F)c(NC(=O)Nc2ccc(-c3cccc4[nH]nc(N)c34)cc2)c1 [Linifanib (ABT-869)] + C=CCn1c(=O)c2cnc(Nc3ccc(N4CCN(C)CC4)cc3)nc2n1-c1cccc(C(C)(C)O)n1 [MK1775] | inactive: -0.947 |

In another format: entries from further up.
SMILES | Z' of S-phase gammaH2AX difference (Z-score)
N#Cc1ccc(C(c2ccc(C#N)cc2)n2cncn2)cc1 [Letrozole] + C=CCn1c(=O)c2cnc(Nc3ccc(N4CCN(C)CC4)cc3)nc2n1-c1cccc(C(C)(C)O)n1 [MK1775] | inactive: 0.104
CN1CCN(C2=Nc3ccccc3Oc3ccc(Cl)cc32)CC1 [Loxapine succinate] + C=CCn1c(=O)c2cnc(Nc3ccc(N4CCN(C)CC4)cc3)nc2n1-c1cccc(C(C)(C)O)n1 [MK1775] | inactive: -0.403
C[N+]1(C)CCC(OC(=O)C(c2ccccc2)c2ccccc2)CC1 [4-DAMP methiodide] + C=CCn1c(=O)c2cnc(Nc3ccc(N4CCN(C)CC4)cc3)nc2n1-c1cccc(C(C)(C)O)n1 [MK1775] | inactive: 0.051
COc1cc(C(=O)OCCCN2CCCN(CCCOC(=O)c3cc(OC)c(OC)c(OC)c3)CC2)cc(OC)c1OC [Dilazep hydrochloride] + C=CCn1c(=O)c2cnc(Nc3ccc(N4CCN(C)CC4)cc3)nc2n1-c1cccc(C(C)(C)O)n1 [MK1775] | inactive: -0.279
O=c1[nH]c2ccccc2n1CCCN1CCN(C(c2ccccc2)c2ccccc2)CC1 [Oxatomide] + C=CCn1c(=O)c2cnc(Nc3ccc(N4CCN(C)CC4)cc3)nc2n1-c1cccc(C(C)(C)O)n1 [MK1775] | inactive: -0.252
Nc1nc(Cl)nc2c1ncn2[C@@H]1O[C@H](CO)[C@@H](O)[C@H]1O [2-Chloroadenosine] + C=CCn1c(=O)c2cnc(Nc3ccc(N4CCN(C)CC4)cc3)nc2n1-c1cccc(C(C)(C)O)n1 [MK1775] | inactive: 0.628
